In paper PMC3690481:
Results are given in words; binding and its absence hold for the method and conditions named. In cells and extracts the contact can be indirect. Some results given as binding are weak or reduced against the parent protein; the word gives no strength.

Amino acid sequences for entries named in this document (tags omitted).
UniProt Q9Y6K9: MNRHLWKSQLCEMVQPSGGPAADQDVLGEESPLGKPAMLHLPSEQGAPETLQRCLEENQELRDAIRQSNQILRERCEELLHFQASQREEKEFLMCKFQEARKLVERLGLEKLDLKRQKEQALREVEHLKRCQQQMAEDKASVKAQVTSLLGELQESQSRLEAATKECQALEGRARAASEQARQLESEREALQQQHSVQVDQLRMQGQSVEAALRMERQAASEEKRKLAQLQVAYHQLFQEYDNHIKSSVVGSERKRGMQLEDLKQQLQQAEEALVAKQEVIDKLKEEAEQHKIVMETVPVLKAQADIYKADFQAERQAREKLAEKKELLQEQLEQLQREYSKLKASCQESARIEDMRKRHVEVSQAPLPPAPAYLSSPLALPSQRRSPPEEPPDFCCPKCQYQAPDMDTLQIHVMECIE

Target: GST-tagged NEMO wild-type (UniProt Q9Y6K9)
Assay: pull-down; GST-NEMO transfected with or without LUBAC into doxycycline-induced control or OTULIN-overexpressing T-REx 293 cells; lysate in PBS, 0.1% Triton X-100, 2 mM NEM on GSH sepharose overnight; western blot

B1: SHARPIN (transfected LUBAC component) (protein, UniProt Q9H0F6 1-387)
chain: MAPPAGGAAAAASDLGSAAVLLAVHAAVRPLGAGPDAEAQLRRLQLSADPERPGRFRLELLGAGPGAVNLEWPLESVSYTIRGPTQHELQPPPGGPGTLSLHFLNPQEAQRWAVLVRGATVEGQNGSKSNSPPALGPEACPVSLPSPPEASTLKGPPPEADLPRSPGNLTEREELAGSLARAIAGGDEKGAAQVAAVLAQHRVALSVQLQEACFPPGPIRLQVTLEDAASAASAASSAHVALQVHPHCTVAALQEQVFSELGFPPAVQRWVIGRCLCVPERSLASYGVRQDGDPAFLYLLSAPREAPATGPSPQHPQKMDGELGRLFPPSLGLPPGPQPAASSLPSPLQPSWSCPSCTFINAPDRPGCEMCSTQRPCTWDPLAAAST
  binding: binds
